# The list shows a part of the results, in another mix than the full data. For part of these data: At the low end of the ranking the order means little. The list shows a part of the results. For part of these data: The source does not settle which construct or isoform was used.
# Molecular target: T1, GABPA (UniProt Q06546)
# T1 sequence: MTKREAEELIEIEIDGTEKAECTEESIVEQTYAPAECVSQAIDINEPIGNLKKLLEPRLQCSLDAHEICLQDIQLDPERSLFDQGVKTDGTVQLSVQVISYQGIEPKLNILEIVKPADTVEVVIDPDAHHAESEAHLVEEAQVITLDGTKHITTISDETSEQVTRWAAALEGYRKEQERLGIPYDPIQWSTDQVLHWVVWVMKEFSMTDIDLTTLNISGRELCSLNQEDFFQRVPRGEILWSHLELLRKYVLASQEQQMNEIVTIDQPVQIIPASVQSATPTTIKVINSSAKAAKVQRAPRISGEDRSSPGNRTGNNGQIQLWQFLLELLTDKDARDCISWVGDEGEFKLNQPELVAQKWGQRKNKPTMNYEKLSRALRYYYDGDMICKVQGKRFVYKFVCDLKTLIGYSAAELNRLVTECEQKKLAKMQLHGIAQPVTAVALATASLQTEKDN
# Assay: DAPPL (digital affinity profiling via proximity ligation, sequencing)
# Conditions: 10 mM Tris-HCl pH 7.5, 50 mM NaCl, 1 mM DTT, 4% glycerol, room temperature, 30 min; GST-TFs on glutathione beads, 16-mer random dsDNA library, 0.1% …; high values mean tight binding; double strand, one strand shown; scale: fold enrichment (6-mer frequency, TF over GST control)
row,Sequence,binding signal
1,TGACGG,0.93
2,ATATCT,1.26
3,CCTAAC,1.37
4,CATACG,1.03
5,ACGCCG,1.11

# Molecular target: T2, ETS1 (UniProt P14921)
# T2 sequence: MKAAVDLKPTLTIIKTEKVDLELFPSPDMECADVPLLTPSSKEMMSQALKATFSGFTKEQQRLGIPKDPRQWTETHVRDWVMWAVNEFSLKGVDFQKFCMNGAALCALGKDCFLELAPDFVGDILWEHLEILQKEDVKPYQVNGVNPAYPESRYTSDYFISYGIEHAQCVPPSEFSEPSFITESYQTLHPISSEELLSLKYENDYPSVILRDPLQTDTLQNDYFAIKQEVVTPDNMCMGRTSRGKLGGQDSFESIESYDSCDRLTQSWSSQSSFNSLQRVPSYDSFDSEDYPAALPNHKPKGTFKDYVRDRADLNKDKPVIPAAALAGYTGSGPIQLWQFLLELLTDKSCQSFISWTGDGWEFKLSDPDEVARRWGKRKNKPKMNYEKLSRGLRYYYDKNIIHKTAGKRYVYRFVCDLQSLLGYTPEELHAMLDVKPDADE
# Assay: as above
# Conditions: 10 mM Tris-HCl pH 7.5, 50 mM NaCl, 1 mM DTT, 4% glycerol, room temperature, 30 min; GST-TFs on glutathione beads, 16-mer random dsDNA library, 0.1% …; high values mean tight binding; double strand, one strand shown; scale: fold enrichment (6-mer frequency, TF over GST control)
row,Sequence,binding signal
1,TAAGTA,1.16
2,CGTTAT,1.13
3,TAACCA,1.09
4,ATTCGC,1.23
5,AGTTAA,1
6,ATTTGT,1.35
7,ACTCGT,1.18
8,TGACGG,0.945
9,ACCTTG,1.18
10,TTCCAC,1.39
11,ACGGCT,1.13
12,CCTCAA,1.39
13,ATATCT,1.17
14,CCCCGT,0.934
15,CGACCA,1.44
16,CCCTGC,1.26
17,ATGCCC,1.4
18,TAGATG,1.29
19,GTTATG,1.12
20,CTTTAG,1.2

row,Sequence,binding signal
1,CACATC,1.46
2,CCTAAC,1.38
3,TTTGAT,1.29
4,GCACAA,1.06
5,GCCCTA,1.18
6,CCGGTG,0.936
7,ATTTTC,1.45
8,CATACG,1.05
9,CTGTCT,1.42
10,ATACAT,1.27
11,ACGCCG,1.13
12,GCTACG,1.17
13,AGTAAT,1.05
14,TTATCG,1.3
15,TTCTAG,1.21
16,GTTCGA,1.19
17,GTAATT,1.24
18,TAAATG,1.24
19,ATTACA,1.13
20,AATACC,1.23
